Measurements published in publication PMC6683245.

Chains of the proteins cited; added tags and fusions are not shown. Residues count along the entry.
UniProt P58154, residues 20-229: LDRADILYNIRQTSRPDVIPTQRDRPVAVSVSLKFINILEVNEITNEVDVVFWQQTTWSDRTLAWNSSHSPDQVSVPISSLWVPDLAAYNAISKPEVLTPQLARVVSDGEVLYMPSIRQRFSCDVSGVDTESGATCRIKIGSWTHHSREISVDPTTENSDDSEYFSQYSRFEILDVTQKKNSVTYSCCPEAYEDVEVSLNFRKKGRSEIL

B1: venom nerve growth factor (vNGF) of Naja kaouthia venom (protein, UniProt P61899 1-116)
chain: EDHPVHNLGEHSVCDSVSAWVTKTTATDIKGNTVTVMENVNLDNKVYKEYFFETKCKNPNPEPSGCRGIDSSHWNSYCTETDTFIKALTMEGNQASWRFIRIETACVCVITKKKGN

How the values were obtained:
[1] = biological target: acetylcholine binding protein from Lymnaea stagnalis (Ls-AChBP) (Lymnaea stagnalis) (UniProt P58154); assay: affinity purification with mass spectrometry; only the target purified
[2] = biological target: acetylcholine binding protein from Lymnaea stagnalis (Ls-AChBP) (Lymnaea stagnalis) (UniProt P58154); assay: as above; remark: listed apart in the source

Molecule | binding [1] | binding [2]
venom nerve growth factor (vNGF) of Naja naja venom (from UniProt P01140 1-116) | binds | –
α-δ-bungarotoxin 4 (from UniProt D2N116 3-76) | binds | –
B1 | – | binds

Where two headings read alike, the source gives them in different places. No constants are given. Whether binding was seen depends on the method and setting. In cells and extracts the contact can be indirect. Here binding means that the protein was enriched with, or labelled near, the bait; the list need not be complete.
